Reference: PubChem BioAssay AID1508588 (Peter MacCallum Cancer Centre, 2020)
Aim: 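Knock-downs boosting vemurafenib effects on melanoma cell growth or lactate release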 (primary screen). System: human WM266.4 melanoma cells (BRAF V600 mutant). Reagents: siRNA pool against human genes, 40 nM. Timing: 96 h from transfection to read-out. Challenge: vemurafenib 300 nM (about IC25), added 48 h after transfection, for 48 h; comparison arm got DMSO vehicle only. Measurement: 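Cell gain (DAPI nuclei at end minus before drug, mean of two replicates) and medium lactate by absorbance per cell, both as ratio to non-targeting siRNA, also grouped into fold-change classes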. Direction: cell gain with vemurafenib: higher = more cell gain than with non-targeting siRNA; lactate per cell with vemurafenib: higher = more lactate made per cell. Rule for the call: 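Enhancement is called by pairing each knock-down's vehicle-arm and drug-arm fold-change classes for viability or glycolysis; which class combinations qualify is not given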. Calls: active = enhances vemurafenib effect; inactive = no enhancement seen.
Shown is one part, drawn at random, of about 18,000 reagents. 790 of all reagents (4.4%) count as active. 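Calls rest on a combination of fold-change classes in drug and vehicle arms, not all shown here.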 Unmarked entries are inactive.

| gene | cell gain with vemurafenib | lactate per cell with vemurafenib |
| --- | --- | --- |
| PRKACA | 0.98 | 0.68 |
| PODN | 0.43 | 1.84 |
| DENND1C | 0.61 | 1.7 |
| SPMIP2 | 0.58 | 0.32 |
| WNT2B | 0.74 | 1.96 |
| MARK3 | 0.42 | 0.96 |
| ZNF410 | 0.8 | 0.73 |
| CYFIP2 | 0.62 | 0.98 |
| TIMM8B | 0.55 (active) | 0.45 |
| ZP3 | 0.9 | 1.36 |
| RGS22 | 0.73 | 0.33 |
| TTF2 | 0.4 | 1.33 |
| NOTCH2 | 0.44 | 1.5 |
| ODF2 | 1.34 | 0.58 |
| FAT1 | 0.85 | 0.86 |
| ZNF37A | 0.26 | 0.72 |
| PLN | 0.48 | 0.62 |
| M6PR | 1.06 | 0.82 |
| GCC1 | 0.31 | 1.12 |
| IL17RA | 0.29 | 1.17 |
| PKMYT1 | 0.41 | 1.62 |
| ABHD2 | 0.54 | 0.68 |
| TRIM17 | 0.99 | 0.7 |
| UBA3 | 1.02 | 1.02 |
| CNBP | 0.61 | 1.32 |
| F8A3 | 0.27 | 2.09 |
| LINC03042 | 0.92 | 1.37 |
| TPR | 0.8 (active) | 0.45 |
| KIF12 | 0.23 | 0.33 |
| PSD4 | 0.86 | 0.42 |
| FAM241A | 0.51 | 0.96 |
| SDS | 0.6 | 0.78 |
| SCN2A | 0.62 | 0.26 |
| BPY2C | 0.77 | 0.51 |
| NCAPD3 | 0.33 | 1.5 |
| NELL1 | 0.67 | 1.28 |
| VAMP3 | 0.31 | 0.69 |
| AURKC | 0.51 | 0.8 |
| AJAP1 | 0.5 | 0.54 |
| MATCAP1 | 0.61 | 0.76 |
| PSAT1 | 1.13 | 0.7 |
| CCL14 | 0.51 | 1.16 |
| CCR10 | 0.49 | 0.69 |
| ZNG1A | 0.53 | 2.43 |
| ACIN1 | 0.85 | 1.02 |
| ITGA4 | 1.27 | 0.77 |
| FAM3D | 0.78 | 0.37 |
| FOXN1 | 0.64 | 0.8 |
| FAM151B | 0.05 | 4.67 |
| ATG5 | 0.35 | 1.3 |
| PUM3 | 0.19 (active) | 1.08 |
| GPRC5A | 0.31 | 1.37 |
| MSRA | 0.45 | 0.94 |
| FAM9A | 0.37 | 1.17 |
| ZCWPW1 | 0.62 (active) | 0.34 |
| SHF | 0.11 (active) | 0.76 |
| SNU13 | 0.63 | 1.43 |
| SLC37A4 | 0.38 | 1.42 |
| DECR1 | 0.75 | 0.64 |
| ARFGAP3 | 0.52 | 1.1 |
| CLEC4F | 0.25 | 1.35 |
| ANGPT2 | 0.71 | 1.23 |
| L1TD1 | 0.35 | 1.77 |
| PIP4K2B | 0.68 | 1.08 |
| ZNF33B | 0.5 | 1.14 |
| TLCD5 | 0.94 | 0.72 |
| TOMM7 | 0.12 | 1.99 |
| SCAPER | 0.91 | 0.78 |
| CLPX | 0.25 | 0.98 |
| SDCBP | 0.6 | 0.32 |
| RNF114 | 0.99 | 0.74 |
| ERN1 | 0.64 | 0.66 |
| CORIN | 0.96 | 0.62 |
| TPRG1L | 0.34 | 0.92 |
| DCTN1 | 0.3 | 0.81 |
| IMPA1 | 0.67 | 1.23 |
| GSTT1 | 1.21 | 0.88 |
| PRAMEF1 | 0.49 | 0.56 |
| AVIL | 1.01 | 0.58 |
| ZNF79 | 0.47 | 0.9 |
| PLPP1 | 0.53 | 0.52 |
| CEP15 | 0.3 | 1.01 |
| IL2 | 0.51 | 1.11 |
| NDUFA10 | 0.83 | 0.97 |
